Results from PubChem BioAssay AID1671190 (National Center for Advancing Translational Sciences (NCATS), 2021).
Values joined by “and” are separate entries in the source; they are usually repeats but may differ in a detail not shown here. Equal values may be shown once. About 6,100 (1.1%) of roughly 580,000 compounds were called active. The shares of active, inactive and inconclusive entries below differ from those in the screen. Calls follow the shape of the dose curve; as a rule, active = well fitted inhibition curve with a large enough effect; inconclusive = small, poorly fitted or top-dose-only effect, or another doubt; inactive = no such curve, though single readings can be large or run the other way. A potency beside an inconclusive call is a rough fit, not a confirmed value.

The chains behind the UniProt entries cited, without tags or fusion partners. Where a name states a change or a piece, a line headed by the entry shows the natural chain unless it says otherwise.
UniProt P18054: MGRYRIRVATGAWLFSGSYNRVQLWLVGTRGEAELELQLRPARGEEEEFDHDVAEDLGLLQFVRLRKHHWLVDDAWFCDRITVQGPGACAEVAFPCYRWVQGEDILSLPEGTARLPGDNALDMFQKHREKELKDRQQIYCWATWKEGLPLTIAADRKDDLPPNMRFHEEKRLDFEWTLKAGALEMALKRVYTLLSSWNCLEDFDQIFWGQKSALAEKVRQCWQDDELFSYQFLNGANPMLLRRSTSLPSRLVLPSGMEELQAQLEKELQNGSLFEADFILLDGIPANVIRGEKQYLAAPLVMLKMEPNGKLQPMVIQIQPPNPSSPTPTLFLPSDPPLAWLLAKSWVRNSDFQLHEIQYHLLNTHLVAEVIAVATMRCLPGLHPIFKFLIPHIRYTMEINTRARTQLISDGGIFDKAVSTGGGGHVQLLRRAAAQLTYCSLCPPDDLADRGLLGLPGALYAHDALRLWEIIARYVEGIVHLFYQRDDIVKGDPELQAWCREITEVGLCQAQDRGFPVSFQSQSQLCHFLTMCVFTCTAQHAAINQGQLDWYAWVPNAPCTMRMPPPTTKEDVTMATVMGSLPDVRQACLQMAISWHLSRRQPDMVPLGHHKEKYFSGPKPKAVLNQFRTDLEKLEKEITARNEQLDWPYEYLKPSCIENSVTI

Each compound was assayed against Polyunsaturated fatty acid lipoxygenase ALOX12 (Homo sapiens) (UniProt P18054) (assay: Primary qHTS assay for inhibitors of human arachidonate 12S-lipoxygenase (ALOX12): Round 2). Settings: purified 12hLO, xylenol orange hydroperoxide absorbance; activity change, negative = inhibition: at 108 µM (top of the series) unless noted.
Outline: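 Purified human 12hLO (150 nM final) in 25 mM Hepes, 0.01% Triton X-100, pH 7.0 was preincubated 15 min at room temperature with compound. Then 40 uM arachidonic acid was added, 30 min. Hydroperoxide was read by Fe-XO absorbance ratio 573/405 nm.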
% is scaled to controls: 0 for no effect and ±100 for the full control effect; potency is read from the fitted curve at half-maximal effect.

SMILES	Potency	activity change, negative = inhibition
Cc1ccc(-c2cn(C3CCN(C(=O)c4ccc(Cl)cc4)CC3)c(=O)[nH]2)cc1	inconclusive: 56.2 µM [inhibitor, partial curve, poor fit]	–
Cc1cc2oc(C(=O)Nc3cccc(Cl)c3C)cc(=O)c2cc1C	inconclusive: 39.8 µM [inhibitor, single point]	–
Cn1cc(C(C[N+](=O)[O-])c2ccccc2)c2ccccc21 (stereo not given)	–	inactive: 13.4%
N#C/C(=C/c1cccn1-c1cccc(C(=O)O)c1)c1ccc(F)cc1	inconclusive: 44.7 µM [inhibitor, partial curve, poor fit]	–
COc1ccc2c(c1)C1NC(=S)NC(C)(O2)C1C(=O)Nc1ccc(Cl)cc1 (stereo not given)	active: 39.8 µM	–
COc1ccc(C2C(C(C)=O)=C(O)C(=O)N2c2ccc(C)cc2)c(OC)c1 (stereo not given)	inconclusive: 44.7 µM [inhibitor, partial curve, poor fit]	–
COc1ccccc1NC(=O)CN1C(=O)c2cccc3cccc1c23	–	inactive: -20.4%
C#CCOCCOCCOCCNc1nc(N2CCOCC2)nc(N2CCN(C(=O)CCCCCCCCCCNC(=O)[C@@H](CCC(=O)O)n3cc(CCCCCN)nn3)CC2)n1	inconclusive: 11.2 µM [inhibitor, full curve, poor fit]	–
COc1ccc(/C=C/C(=O)NC(=S)NNC(=O)c2cccnc2)cc1	–	inactive: -4.61%
COc1ccc(-n2c(SCc3cccnc3)nc3c(c2=O)SCC3)cc1OC	–	inactive: 7.25%
COC(=O)C1=NN(c2ccccc2OC)C2C(=O)N(c3ccccc3OC)C(=O)C12 (stereo not given)	–	inactive: -14.1%
Cc1ccc(C(=O)Nc2c(C)cccc2C(C)C)s1	inconclusive: 5.01 µM [inhibitor, full curve]	–
COC1=C(Br)C(=O)c2ncccc2C1=O	active: 25.1 µM	–
O=C(COC(=O)c1ccco1)Nc1ccc(Cl)cn1	inconclusive: 15.8 µM [inhibitor, partial curve]	–
O=C([C@@H]1C[C@H](F)CN1S(=O)(=O)c1cccc(F)c1)N1CCc2ccccc2C1	inconclusive: 17.8 µM [inhibitor, full curve, poor fit]	–
Cc1cccc(C(=O)NCc2nnc(SCC(=O)NC(C)(C)C)n2-c2ccccc2)c1	–	inactive: 29%
CN(C(=O)c1ccc(NC(=O)Cc2cccc(NC(=O)C3CCN(C(=O)c4ccccc4)CC3)c2)cc1)C1CCCC1	inconclusive: 50.1 µM [inhibitor, partial curve, poor fit]	–
O=C(O)c1ccc(/C=N\Nc2ccccn2)cc1	inconclusive: 4.47 µM [inhibitor, full curve, poor fit]	–
Cc1ccsc1C(=O)N1CCc2ccccc2C1	inconclusive: 7.08 µM [inhibitor, full curve, poor fit]	–
CCn1c(SCC(=O)O)nnc1-c1ccc2[nH]c(C)c(C)c2c1	inconclusive: 112 µM [inhibitor, partial curve, poor fit]	–
CCN(CC)CCNC(=O)C1CCN(S(=O)(=O)c2c(C)noc2/C=C/c2ccccc2F)CC1	inconclusive: 63.1 µM [inhibitor, partial curve, poor fit] and inconclusive: 15.8 µM [inhibitor, partial curve, poor fit]	–
O=C(Nc1ccc(F)c(F)c1)c1cc2cc(Br)ccc2oc1=O	–	inactive: -30.1%

SMILES	Potency	activity change, negative = inhibition
Cc1ccc2c(c1)Sc1c(ccc3ccccc13)N2	inconclusive: 126 µM [inhibitor, partial curve, poor fit]	–
Cn1c2ccccc2c(=O)c2ccc(C#Cc3ccc(N)cc3)cc21	inconclusive: 31.6 µM [inhibitor, partial curve, poor fit]	–
Cc1cc(N=CC2=C(O)CC(C)(C)CC2=O)no1	–	inactive: -29.3%
Cc1ccc2[nH]c(O)c(N=NC(=O)c3ccc(NS(=O)(=O)c4cccs4)cc3)c2c1	–	inactive: 9.64%
CCOC(=O)[C@]12CCCC=C1N(Cc1ccc(Cl)cc1Cl)C(=O)[C@H](CC(=O)N1CCN(C(=O)c3ccco3)CC1)C2	inconclusive: 44.7 µM [inhibitor, partial curve, poor fit]	–
COc1ccc(-c2c(C)nn3c(C(F)(F)F)cc(-c4ccc(Br)cc4)nc23)cc1	inconclusive: 63.1 µM [inhibitor, partial curve, poor fit]	–
CCOc1ccc(CCNC(=O)CCS(=O)(=O)c2ccc(C)cc2)cc1OCC	inconclusive: 1.41 µM [inhibitor, partial curve, poor fit]	–
O=C(O)/C=C/C(=O)Nc1cccc2cccnc12	–	inactive: 13%
COc1ccc(C=O)cc1COc1ccc(-c2ccccc2)cc1	inconclusive: 63.1 µM [inhibitor, partial curve, poor fit]	–
CCOC(=O)c1cc(-c2ccc(F)cc2)n(CC(=O)NC2CCCCC2)c1C	–	inactive: -29%
COc1ccc(C(c2nnnn2Cc2ccccc2)N2CCN(c3nc4ccccc4s3)CC2)cc1OC (stereo not given)	inconclusive: 0.708 µM [inhibitor, full curve, poor fit]	–
Cc1nnc(N2C(=O)C(O)=C(C(=O)c3ccco3)C2c2ccc(F)cc2)s1 (stereo not given)	inconclusive: 0.891 µM [inhibitor, full curve, poor fit]	–
O=C(NCCNC(=O)c1ccc(F)cc1)c1ccc(F)cc1	inconclusive: 126 µM [inhibitor, partial curve, poor fit]	–
CCn1nc(C(=O)N2CC(C(=O)N(C)C)Oc3ccccc32)c2ccccc2c1=O (stereo not given)	–	inactive: 10%
C=CCn1c(SCC(N)=O)nc2sc3c(c2c1=O)CCC3	–	inactive: -26.8%
Cc1ccc(S(=O)(=O)C(CC(=O)c2ccccc2)c2ccc(Cl)cc2)cc1 (stereo not given)	inconclusive: 50.1 µM [inhibitor, partial curve, poor fit]	–
CCn1nccc1C(=O)Nc1ccc(Cl)c(Cl)c1	inconclusive: 89.1 µM [inhibitor, single point]	–
CCC(=O)N1CCc2cc(S(=O)(=O)CCC(=O)N3CCN(c4ccc(F)cc4)CC3)ccc21	–	inactive: 16%
CN(Cc1ccco1)c1cc(-c2cccc(NS(C)(=O)=O)c2)ncn1	inconclusive: 31.6 µM [inhibitor, partial curve, poor fit]	–
O=C(NCc1ccccn1)c1c(-c2ccccc2)sc2ccccc12	–	inactive: -2.45%
Cc1ccc(C)c(CN2CCC(CNC(=O)Cn3ncc4c([nH]c5ccccc54)c3=O)CC2)c1	inconclusive: 56.2 µM [inhibitor, partial curve, poor fit]	–
COc1ccc2nc3n(c2c1)[C@@H](CNS(=O)(=O)Cc1ccccc1)COC3	inconclusive: 22.4 µM [inhibitor, full curve, poor fit]	–

Quoted from above, five compounds:
SMILES	Potency	activity change, negative = inhibition
CCOC(=O)[C@]12CCCC=C1N(Cc1ccc(Cl)cc1Cl)C(=O)[C@H](CC(=O)N1CCN(C(=O)c3ccco3)CC1)C2	inconclusive: 44.7 µM [inhibitor, partial curve, poor fit]	–
COc1ccc(-c2c(C)nn3c(C(F)(F)F)cc(-c4ccc(Br)cc4)nc23)cc1	inconclusive: 63.1 µM [inhibitor, partial curve, poor fit]	–
CCOc1ccc(CCNC(=O)CCS(=O)(=O)c2ccc(C)cc2)cc1OCC	inconclusive: 1.41 µM [inhibitor, partial curve, poor fit]	–
O=C(O)/C=C/C(=O)Nc1cccc2cccnc12	–	inactive: 13%
COc1ccc(C=O)cc1COc1ccc(-c2ccccc2)cc1	inconclusive: 63.1 µM [inhibitor, partial curve, poor fit]	–

Continuation.

SMILES	Potency	activity change, negative = inhibition
COc1ccc(-c2[nH]nc3ncc(-c4ccccc4F)nc23)cc1F	inconclusive: 89.1 µM [inhibitor, partial curve]	–
O=C1C=CC(=O)N1c1ccc2ccccc2c1	active: 39.8 µM	–
O=C(NCCCN1CCOCC1)c1ccc2c(c1)N(Cc1ccccc1)C(=O)c1ccccc1S2	inconclusive: 79.4 µM [inhibitor, partial curve, poor fit]	–
CCN(CC)c1ccc(NC(=O)Nc2cccc(C(C)=O)c2)cc1	inconclusive: 50.1 µM [inhibitor, partial curve]	–
COC(=O)C1CN(C2CCCC2)CCS(=O)(=O)N1Cc1cn(Cc2ccccc2)nn1 (stereo not given)	inconclusive: 8.91 µM [inhibitor, full curve, poor fit]	–
O=C(c1ccc(=O)oc1)N1CCCc2ccccc21	inconclusive: 35.5 µM [inhibitor, single point]	–
Cc1ccc(C)n1-c1nnc(N2CCCC(C(=O)Nc3ccccc3F)C2)s1 (stereo not given)	inconclusive: 35.5 µM [inhibitor, partial curve, poor fit]	–
Cc1cnc(CC2CCN(C(=O)C3CCC3)C2)n1C1CC1 (stereo not given)	–	inactive: 32.2%
CCC(C)(C)NC(=O)C(c1ccc(C)cc1)N(Cc1cccs1)C(=O)c1ccc2c(c1)OCCO2 (stereo not given)	inconclusive: 15.8 µM [inhibitor, partial curve, poor fit]	–
COC(=O)NC(NC(=O)OC)C(Cl)(Cl)Cl	inconclusive: 141 µM [inhibitor, single point]	–
CCCOc1ccc(/C(O)=C2\C(=O)C(=O)NC2c2ccc(Cl)cc2)cc1 (stereo not given)	–	inactive: -61.7%
CCOC(=O)/C=C/C(=O)Nc1ccc(S(=O)(=O)N(C)c2ccccc2)cc1	inconclusive: 50.1 µM [inhibitor, partial curve, poor fit]	–
Cc1cc(Oc2nc3ccccn3c(=O)c2/C=C(\C#N)C(=O)NC2CCS(=O)(=O)C2)ccc1Cl (stereo not given)	inconclusive: 50.1 µM [inhibitor, partial curve, poor fit]	–
COc1ccc(-c2ncc3ccccn23)cc1OC	inconclusive: 3.55 µM [inhibitor, full curve, poor fit]	–
COc1ccccc1NC(=O)Nc1nc(CC(=O)Nc2ccc(N(C)C)cc2)cs1	inconclusive: 35.5 µM [inhibitor, partial curve, poor fit]	–
Cc1nc2cccnc2n1CC1CCCN(C(=O)Nc2cccc(C(F)(F)F)c2)C1 (stereo not given)	–	inactive: 50.6%
CC(C)NC(=O)/C(C#N)=C/c1ccc(C(=O)O)cc1	active: 22.4 µM	–
Cc1ccc(C(=O)Sc2cccccc2=O)cc1	inconclusive: 44.7 µM [inhibitor, partial curve, poor fit]	–
CC(NC(=O)NC1CCCCC1)C(c1cccs1)N1CCN(c2ccccc2)CC1 (stereo not given)	–	inactive: 7.67%
O=C(Nc1cccnc1)c1ccc(COc2ccccc2Br)cc1	inconclusive: 178 µM [inhibitor, partial curve, poor fit]	–
COc1ccc(-c2nc(-c3ccc(NC(=O)c4ccc(Br)o4)cc3)no2)cc1OC	–	inactive: 0%
